# The supplement of paper PMC12764529
# ± gives the half width of the 95% confidence interval. For many entries, trypsin and chymotrypsin gave values far apart.
# What was measured:
# [1] = folding stability dG unfold from trypsin proteolysis; higher = more stable
# How it was run: (§1)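 K50 was inferred by Bayesian fitting of sequencing counts obtained after protease digestion of designed mini-proteins. Unfolding free energy was derived by comparison with a sequence-predicted unfolded-state K50 and a shared folded-state K50, for each protease or both combined. The mini-proteins were under 80 residues, had no cysteine, were carried in a PA-tagged cDNA display construct, and were kept only if AlphaFold2 dimer inter-PAE exceeded 15.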
# [2] = folding stability dG unfold (combined trypsin and chymotrypsin); higher = more stable
# How it was run: as §1
# [3] = folding stability dG unfold from chymotrypsin proteolysis; higher = more stable
# How it was run: as §1
Sequence,folding stability dG unfold [1],folding stability dG unfold [2],folding stability dG unfold [3]
SAGLPEIAEELGFEIASAELVEYDPETGKVTYRVVFRTEDNEYLVIDVDLSEPGKVEIRRFPPNVSLPSAGG [r19_72_TrMRF],1.4 ± 0.088 kcal/mol,3.29 ± 0.12 kcal/mol,3.82 ± 0.07 kcal/mol
SAGGSAGGSMPVITVDPSIKEFKDEKGNKYLLTPVTVTLPNGVPVTVVYTTDPSTGKTTPATSGSAGGSAGG [r6_298_JUSTAS],0.671 ± 0.059 kcal/mol,0.62 ± 0.1 kcal/mol,0.481 ± 0.12 kcal/mol
SAGGSAPADPRPSRVRVFLPALGLEVEVEVTTFADGTVVAHLGFPGPYLLTVTVTPTGATATLVAGSAGGSA [r2_109_TrMRF],1.53 ± 0.15 kcal/mol,3.53 ± 0.11 kcal/mol,4.01 ± 0.052 kcal/mol
SAGGSAGGSAGKVIIIKVPKKDMTPEEVEKLAKELKEKFPDAKITVIEVKKDGYIIIKIDSAGGSAGGSAGG [r11_365_TrROS_Hall],1.91 ± 0.063 kcal/mol,2.47 ± 0.11 kcal/mol,2.73 ± 0.079 kcal/mol
SAGGSAGGSETIEIELTTEDGRKVRMRIEKNPDGSVTIYVFDEDGKLIAKIDLKTNKIEVRKASAGGSAGGS [r20_159_TrROS_Hall],1.23 ± 0.075 kcal/mol,2.83 ± 0.15 kcal/mol,3.44 ± 0.12 kcal/mol
SAGGSMKIELFEDGYLRIVFPADKPELVEEIKKLAEELGLEYELFYDPEKPYVVALFKVPKELLEKSAGGSA [r2_224_TrMRF],1.13 ± 0.032 kcal/mol,2.82 ± 0.12 kcal/mol,3.28 ± 0.022 kcal/mol
SAGGSAGGSAGGKEKKVYEVEIEITFYNKNGKEIAKAKAVVLPDGTIYIKLPNGKWFKLSAGGSAGGSAGGS [r10_972_TrROS_Hall],2.18 ± 0.041 kcal/mol,3.78 ± 0.18 kcal/mol,4.26 ± 0.079 kcal/mol
SMTVVIDIPPEVPVPGSGSVRPVPVEEVLKRVEEAMAKGKKVVVTGRDPKHPLVQEVAARLEELGVEVVGSA [r9_468_JUSTAS],0.342 ± 0.029 kcal/mol,0.59 ± 0.054 kcal/mol,0.71 ± 0.016 kcal/mol
SAGGGDFVEIFRIVRERAAEGHPEVRLADIERELGRPITPEQLAALRDAGLIERLPDGSYVVRIPKDRSAGG [r13_188_TrMRF],1.33 ± 0.049 kcal/mol,3.59 ± 0.2 kcal/mol,3.98 ± 0.12 kcal/mol
SAGGSAGGSDNVKIEWEYNPENGVYTHEVYYDDGRPVTIIINPAEGPIWVFDPPDGKPIAPIPSAGGSAGGS [r12_657_TrROS],1.36 ± 0.05 kcal/mol,1.07 ± 0.073 kcal/mol,0.833 ± 0.023 kcal/mol
SAGGSKIPLDNIKVITIMYNPKEGMYWISIRFPNNGKEVVFPYEDAPKILEKFPEIKEIEVYPFPPSAGGSA [r2_159_TrROS],2.25 ± 0.11 kcal/mol,2.59 ± 0.084 kcal/mol,2.76 ± 0.036 kcal/mol
SDIVLVLPNGHEVRIVKTDEKVYIYLPATGRVIPIPKELLEELTPEEIVERLVELAHQLGIPPEPVEVRGSA [r9_1211_TrMRF],0.975 ± 0.038 kcal/mol,2.67 ± 0.096 kcal/mol,3.3 ± 0.074 kcal/mol
SAGGSAGGSAGGMVELVSIEQDPKGTVTATFRLPNGELRTFVFSSSDPAAIEAAAAALASAGGSAGGSAGGS [r10_472_JUSTAS],2.16 ± 0.041 kcal/mol,4.03 ± 0.15 kcal/mol,4.298 ± 0.039 kcal/mol
SAGGSAGGSAGGAPEKEVTVRVRITVFRDGKPVEEIELEPGQTLTFPPGARVVIEVELLPSAGGSAGGSAGG [r7_141_TrROS_Hall],3 ± 0.13 kcal/mol,3.39 ± 0.17 kcal/mol,3.51 ± 0.12 kcal/mol
SAGGEVELKIKIEIRVELNEDGELKVEIKIEIELRPKPEPELTEEERLAEELRKKYPGLSKEELEALLSAGG [r13_136_TrROS_Hall],2.87 ± 0.32 kcal/mol,2.32 ± 0.27 kcal/mol,1.63 ± 0.13 kcal/mol
SAGGDGVYLIYFPAEGRFALVELDTTTKTAHVRFFGLPETLTFEVDDPLALARALTSPDFPVLVLPVSAGGS [r8_95_TrMRF],2.03 ± 0.049 kcal/mol,3.74 ± 0.13 kcal/mol,4.17 ± 0.074 kcal/mol
DRIEIDVEMYDGYFYKIEIRWPGNGEPRELMFPGSLSEAKDFAEDLIQEQHPGAPVDEIDVEPVPMPPGDFS [r1_80_TrROS],0.683 ± 0.2 kcal/mol,1.69 ± 0.19 kcal/mol,2.01 ± 0.05 kcal/mol
SAGGSAGGSAGGLERSPDGATVIPIKFEFKIPVTKFDPADGEWEWETMKIKVEAYILIPPSAGGSAGGSAGG [r7_374_TrROS],2.36 ± 0.078 kcal/mol,4.19 ± 0.22 kcal/mol,4.45 ± 0.12 kcal/mol
SAGGMIQIERDKDGYLRITIWVPGDPKEAEEIAENIIELLQDLGFDEVDIDYEPFDGGVMIEITVKVSAGGS [r8_113_TrROS],2.9 ± 0.12 kcal/mol,3.29 ± 0.077 kcal/mol,3.49 ± 0.083 kcal/mol
SAGGAEEARKAGRPVLLTVTVTAPGSGKVSTLPLLVPADRPVDVEALVAALFPADWAVTVSVSPVGGSAGGS [r8_127_JUSTAS],1.32 ± 0.028 kcal/mol,1.27 ± 0.11 kcal/mol,1.37 ± 0.051 kcal/mol
SAGGSAMTPEEAKNIKVFNFKITVKAKKGDKIPNGKKLKEDEILKVEINIYVAPNGKIIGVDVKVSSAGGSA [r15_12_TrMRF],3.2 ± 0.13 kcal/mol,5.23 ± 0.38 kcal/mol,5.47 ± 0.24 kcal/mol

Sequence,folding stability dG unfold [1],folding stability dG unfold [2],folding stability dG unfold [3]
SSLTLRLRLEFPLPGPLRVRVEVTLHLERDGDRLTLHLEARVRLDPVPPVPPPPAPPVITPEEASRLLAGSA [r9_965_TrMRF],-0.465 ± 0.56 kcal/mol,3.5 ± 0.25 kcal/mol,4.22 ± 0.08 kcal/mol
SKKKVTININITPGDPEQMEENVRWAIKEAAENDPDKEVTITIHFPPGHPEWMRWIKELFTKKGIPITIHSA [r9_1202_TrROS],2.88 ± 0.042 kcal/mol,3.16 ± 0.059 kcal/mol,3.3 ± 0.037 kcal/mol
SAGGKKYYLLVIVRDPIEKNPDGSLKYEEKPILIEADPEVWEKFAKEIEEELKKKGYEVKIERIPLDSAGGS [r8_10_TrMRF],2.29 ± 0.21 kcal/mol,3.73 ± 0.33 kcal/mol,4.31 ± 0.28 kcal/mol
SAGGIVVGEEGVVRITGPGEPVIIPLPENSEVVEIDVPDDGYVRITLRVDGKTVTVDFPSAPPGLTLSAGGS [r16_635_TrMRF],1.34 ± 0.038 kcal/mol,0.927 ± 0.051 kcal/mol,0.355 ± 0.041 kcal/mol
SAGGSAGGSAGIVIPLDGRPIVIDMYPNGYMRIEVEPPNGKKKTRTFPGAPIEDILKAIKSAGGSAGGSAGG [r11_934_TrROS],-0.695 ± 0.71 kcal/mol,-0.204 ± 0.28 kcal/mol,-0.0199 ± 0.12 kcal/mol
SARIRIMVPPDFIMVRTPKGKMRMVDDPEEIEEIIKDILPVPIEIEPLPPNSPKFQKMMEMMMREQNGPSAG [r14_235_TrROS],-0.264 ± 0.48 kcal/mol,0.0355 ± 0.18 kcal/mol,0.158 ± 0.23 kcal/mol
SAGWNLQVNVERLPNGYVRITIMFTPDMPVEELAKELKKNFGVEVEVEFDPENGMVTVEIEIPLPPGAKSAG [r5_742_TrROS],1.51 ± 0.024 kcal/mol,3.69 ± 0.12 kcal/mol,4.33 ± 0.11 kcal/mol
SAGMKIEIEKVEKDENGKYRFKAKVTVFDEKTGEKKEITIEITLPKEELKDEEILKEAVKKAVEELEKKSAG [r5_964_TrROS_Hall],2.81 ± 0.25 kcal/mol,4.63 ± 0.56 kcal/mol,4.99 ± 0.27 kcal/mol
SAGGSAKTVTVTVVIEMSPEDVEKLLEALRALLPPGATLTIVVLDKETNELYVFTITVPAPPPPEESAGGSA [r15_257_TrROS_Hall],2.52 ± 0.1 kcal/mol,4.12 ± 0.1 kcal/mol,4.53 ± 0.083 kcal/mol
SAGIEEIAKKLGLPIKERREVFEDPETGRRYALVVFKLPDGTYVVIFVDLTNPGDVKVEKRSPTEKLPSAGG [r19_72_JUSTAS],0.915 ± 0.02 kcal/mol,2.41 ± 0.075 kcal/mol,2.982 ± 0.021 kcal/mol
SAGGSAGGSEVERLELTVEIDGLRVRVEVERRDGVLVIKVEVEPAPAPPVEVVTEEERLPEGRSAGGSAGGS [r12_710_TrROS_Hall],-0.0603 ± 0.23 kcal/mol,1.54 ± 0.32 kcal/mol,2.11 ± 0.14 kcal/mol
SAGGSANPDTPKPVVTTVEETVEVPYSSEEEAEAVVKEIEEKNKGVKAEIKSLSEDGIATIVITKKSAGGSA [r15_387_JUSTAS],-1.54 ± 0.47 kcal/mol,1.17 ± 0.2 kcal/mol,1.62 ± 0.096 kcal/mol
SAGSVIRLDSITNSPDGLWLKVTYPDGSVVELPLSPDEPVTVSPDTVTITLPDGPVTLPNTDGKTETLLSAG [r5_999_JUSTAS],1.08 ± 0.04 kcal/mol,0.486 ± 0.048 kcal/mol,-1.11 ± 0.15 kcal/mol
SAGGSAGGSAGGAKTTTLGSESEEEIRAVAAKLPADSTITTNRPGGTSVITVSPNEIVTNSAGGSAGGSAGG [r7_560_JUSTAS],0.144 ± 0.043 kcal/mol,0.836 ± 0.055 kcal/mol,1.22 ± 0.046 kcal/mol
SAGGEIKVEEKDGKLVLTIKDKNGKELKITFTKNKNGEITMEVENKDTGKKYTFKFKSLEEALEALKSAGGS [r8_230_TrROS_Hall],3.04 ± 0.23 kcal/mol,5.82 ± 0.55 kcal/mol,6.06 ± 0.29 kcal/mol
SAEIEELAKALGAEVEIEEKDGKVKITIRLEGADDPNKEFTFEFKLENGETLKVKLVMKNGKIVKIEVESAG [r14_401_TrROS_Hall],2.96 ± 0.26 kcal/mol,4.95 ± 0.27 kcal/mol,5.08 ± 0.16 kcal/mol
SWMKFTFMFMIRTPEQVINFAKWLAQPGLEIEVDVMPMPMKDPENGEPRPYYMVHIKIEIPIPPPSPGDKSA [r9_962_TrROS],3.25 ± 0.091 kcal/mol,4.57 ± 0.12 kcal/mol,5.29 ± 0.086 kcal/mol
SAGGSAGGMVIEGRIKIVSPDGGEKEIPVVLFIPESFPDANLEELAEAIAKEILPPGYKADFEGSAGGSAGG [r6_821_TrMRF],0.601 ± 0.065 kcal/mol,0.879 ± 0.17 kcal/mol,1 ± 0.023 kcal/mol
SAGGSYGWFPITVSFKIFVGGKIVWEFEVEIMIRVPIPPVPPIKVPPEARKAMENGDWEKAMKALGSAGGSA [r2_196_TrROS],1.36 ± 0.095 kcal/mol,3.46 ± 0.53 kcal/mol,4.45 ± 0.19 kcal/mol
SAGGSAGGSAKPEPVTIEFPIESPEEIKDFAEELAPPGMKVNHDPEEGLVKIWIPKDDIKESAGGSAGGSAG [r3_186_TrROS],-0.563 ± 0.098 kcal/mol,1.13 ± 0.068 kcal/mol,1.59 ± 0.039 kcal/mol
SSLMFKMKNEYPFPFGLFIKIEVWFHLRWDDGKLSLDIMVRIEIQPIPPVPPPPPPPKISPEQANDANKNSA [r9_965_TrROS],3.08 ± 0.19 kcal/mol,4.78 ± 0.27 kcal/mol,5.33 ± 0.13 kcal/mol

# Given tab-delimited: part of the list above
Sequence	folding stability dG unfold [1]	folding stability dG unfold [2]	folding stability dG unfold [3]
SAGLPEIAEELGFEIASAELVEYDPETGKVTYRVVFRTEDNEYLVIDVDLSEPGKVEIRRFPPNVSLPSAGG [r19_72_TrMRF]	1.4 ± 0.088 kcal/mol	3.29 ± 0.12 kcal/mol	3.82 ± 0.07 kcal/mol
SAGGSAGGSMPVITVDPSIKEFKDEKGNKYLLTPVTVTLPNGVPVTVVYTTDPSTGKTTPATSGSAGGSAGG [r6_298_JUSTAS]	0.671 ± 0.059 kcal/mol	0.62 ± 0.1 kcal/mol	0.481 ± 0.12 kcal/mol
SAGGSAPADPRPSRVRVFLPALGLEVEVEVTTFADGTVVAHLGFPGPYLLTVTVTPTGATATLVAGSAGGSA [r2_109_TrMRF]	1.53 ± 0.15 kcal/mol	3.53 ± 0.11 kcal/mol	4.01 ± 0.052 kcal/mol
